From patent US4551453A, “2-(ω-Alkylaminoalkyl)- and 2-(ω-dialkylaminoalkyl-3-(4-X-benzylidene)-phthalimidines” (Laboratori Baldacci SpA, priority 1982, dated 1985)

Assay: in vivo
Conditions: mouse, iv

SMILES: CCN(CC)CC(=O)Nc1c(C)cccc1C [lidocaine]
- LD50: 32 mg/kg
